Measurements reported in the supplement of paper PMC10849652.
Some of the results follow.

Sequences of proteins named here, by UniProt entry; tags and fusion partners are left off. A change or cut given only in a name is not applied to a line headed by its entry.
UniProt P82909: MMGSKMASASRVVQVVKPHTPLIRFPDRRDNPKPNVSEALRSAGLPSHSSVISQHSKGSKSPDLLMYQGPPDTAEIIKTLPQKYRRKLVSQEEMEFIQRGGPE
UniProt P46199: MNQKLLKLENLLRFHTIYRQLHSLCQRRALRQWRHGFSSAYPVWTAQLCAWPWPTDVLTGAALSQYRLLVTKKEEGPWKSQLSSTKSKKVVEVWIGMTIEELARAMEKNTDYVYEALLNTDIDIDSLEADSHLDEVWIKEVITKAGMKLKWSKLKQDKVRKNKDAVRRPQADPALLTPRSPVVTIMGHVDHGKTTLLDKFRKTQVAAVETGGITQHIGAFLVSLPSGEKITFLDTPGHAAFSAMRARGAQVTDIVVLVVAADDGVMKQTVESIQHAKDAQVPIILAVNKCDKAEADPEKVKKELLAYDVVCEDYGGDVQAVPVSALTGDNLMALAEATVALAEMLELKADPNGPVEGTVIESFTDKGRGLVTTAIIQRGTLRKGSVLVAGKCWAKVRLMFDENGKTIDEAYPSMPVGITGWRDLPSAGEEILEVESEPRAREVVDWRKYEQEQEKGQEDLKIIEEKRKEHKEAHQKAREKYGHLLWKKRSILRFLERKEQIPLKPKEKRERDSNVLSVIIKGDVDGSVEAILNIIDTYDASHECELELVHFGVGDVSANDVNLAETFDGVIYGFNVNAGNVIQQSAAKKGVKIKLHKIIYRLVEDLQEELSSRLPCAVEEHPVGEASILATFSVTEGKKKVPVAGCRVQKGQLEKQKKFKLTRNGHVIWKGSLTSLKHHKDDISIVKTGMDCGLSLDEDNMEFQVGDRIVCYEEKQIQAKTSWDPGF
UniProt P03915, whole entry, looked up: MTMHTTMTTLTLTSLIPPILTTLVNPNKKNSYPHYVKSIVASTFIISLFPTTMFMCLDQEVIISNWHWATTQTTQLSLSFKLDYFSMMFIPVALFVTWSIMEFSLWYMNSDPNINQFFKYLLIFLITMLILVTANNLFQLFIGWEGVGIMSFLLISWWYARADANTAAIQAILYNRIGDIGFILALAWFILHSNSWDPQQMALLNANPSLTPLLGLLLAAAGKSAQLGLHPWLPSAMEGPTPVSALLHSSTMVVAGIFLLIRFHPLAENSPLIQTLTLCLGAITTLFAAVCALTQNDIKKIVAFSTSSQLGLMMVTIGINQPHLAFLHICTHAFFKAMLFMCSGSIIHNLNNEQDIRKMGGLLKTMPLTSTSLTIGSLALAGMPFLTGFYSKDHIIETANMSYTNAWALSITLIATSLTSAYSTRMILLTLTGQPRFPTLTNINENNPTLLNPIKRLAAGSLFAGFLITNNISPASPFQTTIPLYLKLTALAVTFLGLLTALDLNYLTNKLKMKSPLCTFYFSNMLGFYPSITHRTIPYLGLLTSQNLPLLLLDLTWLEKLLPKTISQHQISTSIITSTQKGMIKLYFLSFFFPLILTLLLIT
UniProt Q9BTC8: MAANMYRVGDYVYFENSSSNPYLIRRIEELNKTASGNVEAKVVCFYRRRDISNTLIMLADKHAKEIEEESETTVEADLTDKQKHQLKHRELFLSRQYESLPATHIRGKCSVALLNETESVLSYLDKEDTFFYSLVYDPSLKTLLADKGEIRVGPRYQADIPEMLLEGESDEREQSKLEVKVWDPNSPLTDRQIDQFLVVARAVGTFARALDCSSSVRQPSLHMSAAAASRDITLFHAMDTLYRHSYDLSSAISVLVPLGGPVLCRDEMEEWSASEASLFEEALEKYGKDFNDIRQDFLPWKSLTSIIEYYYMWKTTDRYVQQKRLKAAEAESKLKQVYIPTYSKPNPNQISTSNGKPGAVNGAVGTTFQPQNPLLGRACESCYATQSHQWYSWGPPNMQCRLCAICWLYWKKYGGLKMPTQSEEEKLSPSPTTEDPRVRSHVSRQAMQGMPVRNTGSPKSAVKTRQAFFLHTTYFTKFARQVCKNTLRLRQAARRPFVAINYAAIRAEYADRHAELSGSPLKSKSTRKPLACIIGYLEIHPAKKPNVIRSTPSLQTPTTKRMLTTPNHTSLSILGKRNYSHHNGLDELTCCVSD
UniProt P58546, whole entry, looked up: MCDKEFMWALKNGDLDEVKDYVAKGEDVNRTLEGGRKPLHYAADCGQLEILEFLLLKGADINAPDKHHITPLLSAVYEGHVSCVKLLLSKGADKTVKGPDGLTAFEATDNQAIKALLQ

What was measured:
Test in all cases: log2 fold change, soluble protein after heating vs DMSO (PISA); higher = thermal stabilisation; K562 lysate, 10 uM; active = over 0.2 and 3.5 SD of the protein, either way, in both replicates (recomputed)
[1] = compound: C#Cc1cccc(Nc2ncnc3cc(OCCOC)c(OCCOC)cc23)c1 [erlotinib]
Procedure, shortened: (§1)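 K562 pellets were dounce-homogenised in PBS pH 7.4 containing 1 mM MgCl2, and the crude extract, at 1 mg/mL protein, was exposed to 10 μM compound for 30 min. Aliquots were heated for 3 min across 48°C-58°C, pooled, brought to 0.5% NP-40 at 4°C and spun at 21,000xg for 90 min, with the supernatant taken as soluble protein. TMTpro 16plex LC-MS/MS with equalised channel sums quantified that protein. Values are log-two fold changes in thermal stability relative to solvent controls, taken from duplicates.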

[2] = compound: C/C(=N\NC(=O)C1=CC(=CC=C1)S(=O)(=O)N2CCOCC2)/C3=C(C=CC(=C3)Cl)O
Procedure, shortened: as §1

[3] = compound: C1=CC(=CC=C1C2=NC3=C(N2)C=C(C=C3)C(=O)N)OC4=CC=C(C=C4)Cl
Procedure, shortened: as §1

[4] = compound: C1=CC2=C(C=CC(=C2)/C=C\3/C(=O)NC(=NCC4=CC=CS4)S3)N=C1
Procedure, shortened: as §1

[5] = compound: C1=CC2=NC=CN=C2C=C1/C=C/3\C(=O)NC(=O)S3
Procedure, shortened: as §1

[6] = compound: C1=CC=C(C=C1)C2=NC(=C(N2)C3=CC=NC=C3)C4=CC(=C(C=C4)Cl)O
Procedure, shortened: as §1

[7] = compound: C1=CC=C2C(=C1)C3=NNC4=CC=CC(=C43)C2=O
Procedure, shortened: as §1

[8] = compound: C1CCN(C1)C(=O)NC2=CC=CC(=C2)NC3=NC=C(C(=N3)NCCC4=CN=CN4)Br
Procedure, shortened: as §1

[9] = compound: C1CN(CCC1(CC2=CC=C(C=C2)Cl)N)C3=NC=NC4=C3C=CN4
Procedure, shortened: as §1

[10] = compound: C1COCCN1CCN2C3=CC=CC=C3N=C2NC(=O)C4=CC(=CC=C4)[N+](=O)[O-] [IRAK-1-4 Inhibitor I]
Procedure, shortened: as §1

[11] = compound: C=CC(=O)N1CCC[C@@H](n2nc(-c3ccc(Oc4ccccc4)cc3)c3c(N)ncnc32)C1 [ibrutinib]
Procedure, shortened: as §1

[12] = compound: CC(=O)c1cnc2ccc(-c3cc(Cl)c(O)c(Cl)c3)nc2c1N[C@H]1CC[C@H](CN(C)C)CC1
Procedure, shortened: as §1

[13] = compound: CC(C)(C)Cn1c(N)nc2ccc(-c3[nH]c(C(C)(C)C)nc3-c3ccc(F)cc3)nc21 [ralimetinib]
Procedure, shortened: as §1

[14] = compound: CC(C)(O)CC(=O)NCCn1ccc2ncnc(Nc3ccc(Oc4cccc(C(F)(F)F)c4)c(Cl)c3)c21
Procedure, shortened: as §1

[15] = compound: CC(C)C1=C2N=C(C=C(N2N=C1)NCC3=CC=CC=C3)NCCCCCCN
Procedure, shortened: as §1

[16] = compound: CC1=C(C(CC(=O)N1)C2=CC=C(C=C2)C(F)(F)F)C(=O)NC3=C(C=C4C(=C3)C=NN4)F
Procedure, shortened: as §1

[17] = compound: CC1=C(C2=C(C=C1)C(=O)C3=CC=CC=C3N2CCCN)C
Procedure, shortened: as §1

[18] = compound: CC1=C(C=C(C=C1)NC(=O)C2=CC(=CC=C2)C(C)(C)C#N)NC3=CC4=C(C=C3)N=CN(C4=O)C
Procedure, shortened: as §1

[19] = compound: CC1=C(C=C(C=C1)NC(=O)C2=CC(=CC=C2)N(C)C)NC(=O)C3=CC=C(C=C3)O
Procedure, shortened: as §1

[20] = compound: CC1=CC=C(C=C1)SC2=C3C=C(SC3=CN=C2)C(=O)N
Procedure, shortened: as §1

Measured: log2 fold change

MRPS26 (UniProt Q9BYN8)
inactive: [1] 0.144 | [2] -0.04 | [3] -0.198 | [4] 0.026 | [5] -0.094 | [6] 0.288 | [7] -0.075 | [8] 0.016 | [9] -0.02 | [10] -0.055 | [11] 0.126 | [12] -0.183 | [13] -0.011 | [14] -0.008 | [15] -0.028 | [16] -0.016 | [17] -0.045 | [18] -0.006 | [19] 0.106 | [20] 0.156

MRPS24 (UniProt Q96EL2)
inactive: [1] -0.025 | [2] 0.153 | [3] 0.016 | [4] 0.049 | [5] -0.032 | [6] 0.012 | [7] 0.112 | [8] 0.056 | [9] -0.119 | [10] -0.022 | [11] 0.032 | [12] 0.054 | [13] 0.051 | [14] -0.001 | [15] 0.027 | [16] -0.051 | [17] -0.145 | [18] -0.063 | [19] 0.011 | [20] 0.072

MRPL55 isoform 2 (UniProt Q7Z7F7)
inactive: [1] 0.007 | [2] -0.364 | [3] 0.009 | [4] 0.008 | [5] -0.085 | [6] -0.021 | [7] 0.031 | [8] -0.07 | [9] 0.038 | [10] 0.037 | [11] 0.081 | [12] 0.007 | [13] 0.009 | [14] 0.016 | [15] -0.035 | [16] -0.048 | [17] -0.034 | [18] 0.049 | [19] -0.046 | [20] -0.006

MRPS36 (UniProt P82909)
inactive: [1] -0.024 | [2] -0.081 | [3] 0.053 | [4] -0.007 | [5] -0.049 | [6] 0.01 | [7] -0.036 | [8] -0.034 | [9] 0.007 | [10] 0.029 | [11] 0.029 | [12] 0.046 | [13] -0.073 | [14] -0.027 | [15] -0.014 | [16] 0.002 | [17] -0.035 | [18] 0.052 | [19] 0.01 | [20] -0.042

Two neighbouring records out of the list so far, for reference:
MRPL55 isoform 2 (UniProt Q7Z7F7)
inactive: [1] 0.007 | [2] -0.364 | [3] 0.009 | [4] 0.008 | [5] -0.085 | [6] -0.021 | [7] 0.031 | [8] -0.07 | [9] 0.038 | [10] 0.037 | [11] 0.081 | [12] 0.007 | [13] 0.009 | [14] 0.016 | [15] -0.035 | [16] -0.048 | [17] -0.034 | [18] 0.049 | [19] -0.046 | [20] -0.006

MRPS36 (UniProt P82909)
inactive: [1] -0.024 | [2] -0.081 | [3] 0.053 | [4] -0.007 | [5] -0.049 | [6] 0.01 | [7] -0.036 | [8] -0.034 | [9] 0.007 | [10] 0.029 | [11] 0.029 | [12] 0.046 | [13] -0.073 | [14] -0.027 | [15] -0.014 | [16] 0.002 | [17] -0.035 | [18] 0.052 | [19] 0.01 | [20] -0.042

(next part)

MRPL47 (UniProt Q9HD33)
inactive: [1] 0.028 | [2] -0.011 | [3] 0.063 | [4] 0.122 | [5] 0.063 | [6] 0.015 | [7] 0.025 | [8] -0.026 | [9] 0.189 | [10] -0.063 | [11] 0.062 | [12] -0.069 | [13] 0.041 | [14] 0.016 | [15] 0.036 | [16] 0.052 | [17] -0.036 | [18] -0.047 | [19] -0.01 | [20] 0.07

MRPS22 (UniProt P82650)
inactive: [1] 0.001 | [2] -0.057 | [3] 0.035 | [4] -0.002 | [5] -0.005 | [6] -0.023 | [7] -0.107 | [8] -0.041 | [9] 0.04 | [10] 0.025 | [11] 0.017 | [12] -0.019 | [13] 0.012 | [14] -0.007 | [15] 0.039 | [16] 0.008 | [17] -0.097 | [18] 0.028 | [19] 0.037 | [20] 0.002

MRPS16 (UniProt Q9Y3D3)
inactive: [1] -0.005 | [2] -0.144 | [3] 0.032 | [4] -0.053 | [5] -0.092 | [6] -0.045 | [7] 0.032 | [8] 0.008 | [9] -0.036 | [10] -0.041 | [11] 0.099 | [12] 0.007 | [13] -0.003 | [14] 0.009 | [15] 0.078 | [16] -0.03 | [17] -0.046 | [18] -0.01 | [19] 0.056 | [20] -0.056

MTIF2 (UniProt P46199)
inactive: [1] -0.015 | [2] -0.212 | [3] 0.01 | [4] -0.022 | [5] 0.008 | [6] -0.001 | [7] -0.031 | [8] -0.036 | [9] -0.025 | [10] -0.038 | [11] -0.008 | [12] 0.01 | [13] 0.027 | [14] -0.012 | [15] 0.017 | [16] -0.009 | [17] -0.026 | [18] 0.015 | [19] 0.041 | [20] -0.016

MRPL52 (UniProt Q86TS9)
inactive: [1] 0.095 | [2] -0.067 | [3] 0.007 | [4] 0.242 | [5] -0.015 | [6] 0.003 | [7] -0.088 | [8] 0 | [9] -0.112 | [10] -0.031 | [11] 0.182 | [12] -0.048 | [13] 0.006 | [14] -0.001 | [15] -0.073 | [16] 0.078 | [17] -0.014 | [18] -0.013 | [19] -0.056 | [20] -0.034

MT-ND5 (UniProt P03915)
inactive: [1] 0.046 | [2] -0.053 | [3] -0.009 | [4] -0.002 | [5] 0.188 | [6] -0.058 | [7] -0.101 | [8] -0.016 | [9] 0.059 | [10] 0.039 | [11] -0.075 | [12] 0 | [13] -0.014 | [14] -0.075 | [15] -0.04 | [16] 0.008 | [17] -0.096 | [18] 0.005 | [19] -0.056 | [20] 0.014

MRPL58 (UniProt Q14197)
inactive: [1] 0.025 | [2] -0.005 | [3] 0.054 | [4] -0.003 | [5] 0.01 | [6] -0.002 | [7] -0.025 | [8] -0.078 | [9] 0.043 | [10] -0.012 | [11] 0.025 | [12] 0.032 | [13] -0.022 | [14] 0.006 | [15] -0.013 | [16] 0.089 | [17] -0.034 | [18] -0.035 | [19] 0.032 | [20] 0.053

MRPS12 (UniProt O15235)
inactive: [1] -0.015 | [2] -0.058 | [3] 0 | [4] -0.044 | [5] -0.016 | [6] 0.019 | [7] -0.251 | [8] -0.004 | [9] -0.127 | [10] 0.043 | [11] -0.003 | [12] -0.008 | [13] 0.011 | [14] -0.067 | [15] 0.007 | [16] -0.004 | [17] -0.138 | [18] 0.003 | [19] -0.028 | [20] -0.02

MTA3 (UniProt Q9BTC8)
inactive: [1] 0.025 | [2] -0.051 | [3] 0.02 | [4] -0.022 | [5] -0.078 | [6] -0.046 | [7] 0 | [8] 0.004 | [9] 0.025 | [10] 0.012 | [11] -0.048 | [12] -0.023 | [13] 0.009 | [14] 0.062 | [15] 0.01 | [16] -0.047 | [17] 0.031 | [18] -0.053 | [19] -0.052 | [20] -0.018

MTPN (UniProt P58546)
inactive: [1] -0.006 | [2] 0.018 | [3] -0.024 | [4] 0.023 | [5] -0.006 | [6] -0.034 | [7] -0.074 | [8] 0.003 | [9] 0.032 | [10] -0.055 | [11] -0.022 | [12] -0.034 | [13] 0 | [14] 0.011 | [15] 0.011 | [16] -0.03 | [17] 0.036 | [18] -0.019 | [19] 0.039 | [20] 0.075

MTHFD1L (UniProt B7ZM99)
inactive: [1] 0.026 | [2] -0.001 | [3] 0 | [4] -0.007 | [5] 0.033 | [6] -0.006 | [7] -0.057 | [8] -0.004 | [9] 0.002 | [10] -0.013 | [11] -0.034 | [12] -0.014 | [13] 0.004 | [14] 0.011 | [15] -0.007 | [16] -0.005 | [17] -0.006 | [18] 0.033 | [19] 0.02 | [20] -0.023

MRPS18A isoform 2 (UniProt Q9NVS2)
inactive: [1] 0.024 | [2] -0.038 | [3] 0.038 | [4] 0.112 | [5] -0.035 | [6] -0.053 | [7] -0.013 | [8] 0.009 | [9] 0.004 | [10] 0.015 | [11] -0.015 | [12] 0.006 | [13] -0.015 | [14] -0.002 | [15] -0.046 | [16] 0.034 | [17] -0.131 | [18] 0.016 | [19] 0.043 | [20] -0.003
